The results in this text go back to patent publication US20220017960A1.

Sequences of proteins named here, by UniProt entry; tags and fusion partners are left off.
UniProt Q14258: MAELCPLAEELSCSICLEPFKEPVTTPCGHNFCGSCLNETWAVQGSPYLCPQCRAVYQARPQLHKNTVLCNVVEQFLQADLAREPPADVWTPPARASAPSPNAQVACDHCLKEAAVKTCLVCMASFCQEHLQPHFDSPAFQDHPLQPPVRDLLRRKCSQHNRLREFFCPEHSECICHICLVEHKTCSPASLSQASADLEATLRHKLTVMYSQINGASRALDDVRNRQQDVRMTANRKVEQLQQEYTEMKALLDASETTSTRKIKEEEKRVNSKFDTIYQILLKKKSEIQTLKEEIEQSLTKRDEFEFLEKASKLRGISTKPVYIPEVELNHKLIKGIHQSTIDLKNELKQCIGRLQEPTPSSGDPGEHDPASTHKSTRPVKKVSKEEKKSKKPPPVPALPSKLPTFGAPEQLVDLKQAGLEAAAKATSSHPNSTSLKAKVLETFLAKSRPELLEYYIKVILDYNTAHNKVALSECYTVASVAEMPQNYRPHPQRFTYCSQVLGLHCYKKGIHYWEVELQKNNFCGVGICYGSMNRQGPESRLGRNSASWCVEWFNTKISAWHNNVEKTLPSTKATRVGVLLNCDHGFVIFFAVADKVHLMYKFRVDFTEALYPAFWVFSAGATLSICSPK

Where a chain is given by its changes, count along the chain named. Numbers in names are those of the source. Results are given in words; binding and its absence hold for the method and conditions named. In cells and extracts the contact can be indirect. Some results given as binding are weak or reduced against the parent protein; the word gives no strength. Sequences can lack the tags named with a protein.

This assay deals with FLAG-tagged TRIM25 (UniProt Q14258). Briefly: co-immunoprecipitation and immunoblotting, epitope-tagged proteins co-transfected in HEK293T cells. For orientation: A western blot detects proteins with antibodies after separation by electrophoresis.

B1: Xpress (Xpr)-tagged human USP15 wild type (WT) (enzyme, not shown: small tags and cut ends)
chain: AEGGAADLDTQRSDIATLLKTSLRKGDTWYLVDSRWFKQWKKYVGFDSWDKYQMGDQNVYPGPIDNSGLLKDGDAQSLKEHLIDELDYILLPTEGWNKLVSWYTLMEGQEPIARKVVEQGMFVKHCKVEVYLTELKLCENGNMNNVVTRRFSKADTIDTIEKEIRKIFSIPDEKETRLWNKYMSNTFEPLNKPDSTIQDAGLYQGQVLVIEQKNEDGTWPRGPSTPNVKNSNYCLPSYTAYKNYDYSEPGRNNEQPGLCGLSNLGNTCFMNSAIQCLSNTPPLTEYFLNDKYQEELNFDNPLGMRGEIAKSYAELIKQMWSGKFSYVTPRAFKTQVGRFAPQFSGYQQQDCQELLAFLLDGLHEDLNRIRKKPYIQLKDADGRPDKVVAEEAWENHLKRNDSIIVDIFHGLFKSTLVCPECAKISVTFDPFCYLTLPLPMKKERTLEVYLVRMDPLTKPMQYKVVVPKIGNILDLCTALSALSGIPADKMIVTDIYNHRFHRIFAMDENLSSIMERDDIYVFEININRTEDTEHVIIPVCLREKFRHSSYTHHTGSSLFGQPFLMAVPRNNTEDKLYNLLLLRMCRYVKISTETEETEGSLHCCKDQNINGNGPNGIHEEGSPSEMETDEPDDESSQDQELPSENENSQSEDSVGGDNDSENGLCTEDTCKGQLTGHKKRLFTFQFNNLGNTDINYIKDDTRHIRFDDRQLRLDERSFLALDWDPDLKKRYFDENAAEDFEKHESVEYKPPKKPFVKLKDCIELFTTKEKLGAEDPWYCPNCKEHQQATKKLDLWSLPPVLVVHLKRFSYSRYMRDKLDTLVDFPINDLDMSEFLINPNAGPCRYNLIAVSNHYGGMGGGHYTAFAKNKDDGKWYYFDDSSVSTASEDQIVSKAAYVLFYQRQDTFSGTGFFPLDRETKGASAATGIPLESDEDSNDNDNDIENENCMHTN
B1: the binding entry was “binds”.

B2: Xpress (Xpr)-tagged human USP15 mutant (L720R) (enzyme, not shown: small tags and cut ends)
chain: B1 chain with L719R
Consider B2, for which the binding entry was “binds”.
